Test results: ChEMBL document CHEMBL1140015, “Pyrazolone methylamino piperidine derivatives as novel CCR3 antagonists” (Bioorg Med Chem Lett, 2007)
Converted amounts (≈) assume the structure as drawn.

Assay: Solubility in water at pH 7.4
Conditions: buffer

## Cc1c(CN(CCc2ccccn2)C2CCN(C(=O)c3c(F)cccc3F)CC2)c(=O)n(-c2ccc(F)cc2)n1C
  solubility: 1500 µg/mL (≈ 2660 µM)
